Assay results: the supplement of paper PMC8728848
The list shows a part of the results.

Experiments:
Test in all cases: glycan array binding signal (z-score within array); higher = stronger binding
Conditions in all cases: glycan notation: IUPAC condensed, linker removed
[1] = biological target: Neu5Ac(a2-3)Gal(b1-4)GlcNAc(b1-6)GalNAc
Outline: (§1)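 Columns mapping to the same glycan were averaged after glycan names were converted to IUPAC-condensed notation. The data come from 3228 arrays in the Consortium for Functional Glycomics database, limited to those with an available protein sequence. Binding is reported as a within-array Z-score averaged across arrays of one protein sequence and across linkers.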

[2] = biological target: Neu5Ac(a2-3)Gal(b1-4)GlcNAc(b1-6)[Gal(b1-3)]GalNAc
Outline: as §1

[3] = biological target: Neu5Ac(a2-3)Gal(b1-4)GlcNAc(b1-6)[Neu5Ac(a2-3)Gal(b1-3)]GalNAc
Outline: as §1

[4] = biological target: Neu5Ac(a2-3)Gal(b1-4)GlcNAc6S
Outline: as §1

[5] = biological target: Neu5Ac(a2-3)Gal(b1-4)[Fuc(a1-3)]GlcNAc
Outline: as §1

[6] = biological target: Neu5Ac(a2-3)Gal(b1-4)[Fuc(a1-3)]GlcNAc(b1-2)Man
Outline: as §1

[7] = biological target: Neu5Ac(a2-3)Gal(b1-4)[Fuc(a1-3)]GlcNAc(b1-3)Gal
Outline: as §1

[8] = biological target: Neu5Ac(a2-3)Gal(b1-4)[Fuc(a1-3)]GlcNAc(b1-3)Gal(b1-4)GlcNAc
Outline: as §1

[9] = biological target: Neu5Ac(a2-3)Gal(b1-4)[Fuc(a1-3)]GlcNAc(b1-3)Gal(b1-4)[Fuc(a1-3)]GlcNAc(b1-3)Gal(b1-4)[Fuc(a1-3)]GlcNAc
Outline: as §1

[10] = biological target: Neu5Ac(a2-3)Gal(b1-4)[Fuc(a1-3)]GlcNAc(b1-3)GalNAc
Outline: as §1

[11] = biological target: Neu5Ac(a2-3)Gal(b1-4)[Fuc(a1-3)]GlcNAc(b1-6)[Gal(b1-3)]GalNAc
Outline: as §1

[12] = biological target: Neu5Ac(a2-3)Gal(b1-4)[Fuc(a1-3)]GlcNAc(b1-6)[Neu5Ac(a2-3)Gal(b1-3)]GalNAc
Outline: as §1

[13] = biological target: Neu5Ac(a2-3)Gal(b1-4)[Fuc(a1-3)]GlcNAc6S
Outline: as §1

[14] = biological target: Neu5Ac(a2-3)Gal6S(b1-4)GlcNAc
Outline: as §1

[15] = biological target: Neu5Ac(a2-3)Gal6S(b1-4)[Fuc(a1-3)]GlcNAc
Outline: as §1

[16] = biological target: Neu5Ac(a2-3)GalNAc
Outline: as §1

[17] = biological target: Neu5Ac(a2-3)GalNAc(b1-4)GlcNAc
Outline: as §1

[18] = biological target: Neu5Ac(a2-3)[GalNAc(b1-4)]Gal(b1-4)Glc
Outline: as §1

[19] = biological target: Neu5Ac(a2-3)[GalNAc(b1-4)]Gal(b1-4)GlcNAc
Outline: as §1

[20] = biological target: Neu5Ac(a2-3)[GalNAc(b1-4)]Gal(b1-4)GlcNAc(b1-3)GalNAc
Outline: as §1

[21] = biological target: Neu5Ac(a2-3)[Neu5Ac(a2-6)]GalNAc
Outline: as §1

[22] = biological target: Neu5Ac(a2-6)Gal
Outline: as §1

[23] = biological target: Neu5Ac(a2-6)Gal(b1-3)GlcNAc(b1-3)[Gal(b1-4)GlcNAc(b1-6)]Gal(b1-4)Glc
Outline: as §1

[24] = biological target: Neu5Ac(a2-6)Gal(b1-4)Glc
Outline: as §1

[25] = biological target: Neu5Ac(a2-6)Gal(b1-4)GlcNAc
Outline: as §1

[26] = biological target: Neu5Ac(a2-6)Gal(b1-4)GlcNAc(b1-2)Man
Outline: as §1

[27] = biological target: Neu5Ac(a2-6)Gal(b1-4)GlcNAc(b1-2)Man(a1-3)Man(b1-4)GlcNAc(b1-4)GlcNAc
Outline: as §1

[28] = biological target: Neu5Ac(a2-6)Gal(b1-4)GlcNAc(b1-2)Man(a1-3)[Gal(b1-4)GlcNAc(b1-2)Man(a1-6)]Man(b1-4)GlcNAc(b1-4)GlcNAc
Outline: as §1

[29] = biological target: Neu5Ac(a2-6)Gal(b1-4)GlcNAc(b1-2)Man(a1-3)[GlcNAc(b1-2)Man(a1-6)]Man(b1-4)GlcNAc(b1-4)GlcNAc
Outline: as §1

[30] = biological target: Neu5Ac(a2-6)Gal(b1-4)GlcNAc(b1-2)Man(a1-3)[GlcNAc(b1-4)][Neu5Ac(a2-6)Gal(b1-4)GlcNAc(b1-2)Man(a1-6)]Man(b1-4)GlcNAc(b1-4)GlcNAc
Outline: as §1

[31] = biological target: Neu5Ac(a2-6)Gal(b1-4)GlcNAc(b1-2)Man(a1-3)[Man(a1-6)]Man(b1-4)GlcNAc(b1-4)GlcNAc
Outline: as §1

[32] = biological target: Neu5Ac(a2-6)Gal(b1-4)GlcNAc(b1-2)Man(a1-3)[Neu5Ac(a2-3)Gal(b1-4)GlcNAc(b1-2)Man(a1-6)]Man(b1-4)GlcNAc(b1-4)GlcNAc
Outline: as §1

[33] = biological target: Neu5Ac(a2-6)Gal(b1-4)GlcNAc(b1-2)Man(a1-3)[Neu5Ac(a2-6)Gal(b1-4)GlcNAc(b1-2)Man(a1-6)]Man(b1-4)GlcNAc(b1-4)GlcNAc
Outline: as §1

[34] = biological target: Neu5Ac(a2-6)Gal(b1-4)GlcNAc(b1-2)Man(a1-3)[Neu5Ac(a2-6)Gal(b1-4)GlcNAc(b1-2)Man(a1-6)]Man(b1-4)GlcNAc(b1-4)[Fuc(a1-6)]GlcNAc
Outline: as §1

[35] = biological target: Neu5Ac(a2-6)Gal(b1-4)GlcNAc(b1-2)Man(a1-6)Man(b1-4)GlcNAc(b1-4)GlcNAc
Outline: as §1

[36] = biological target: Neu5Ac(a2-6)Gal(b1-4)GlcNAc(b1-2)Man(a1-6)[Gal(b1-4)GlcNAc(b1-2)Man(a1-3)]Man(b1-4)GlcNAc(b1-4)GlcNAc
Outline: as §1

[37] = biological target: Neu5Ac(a2-6)Gal(b1-4)GlcNAc(b1-2)Man(a1-6)[GlcNAc(b1-2)Man(a1-3)]Man(b1-4)GlcNAc(b1-4)GlcNAc
Outline: as §1

[38] = biological target: Neu5Ac(a2-6)Gal(b1-4)GlcNAc(b1-2)Man(a1-6)[Man(a1-3)]Man(b1-4)GlcNAc(b1-4)GlcNAc
Outline: as §1

[39] = biological target: Neu5Ac(a2-6)Gal(b1-4)GlcNAc(b1-2)[Neu5Ac(a2-6)Gal(b1-4)GlcNAc(b1-4)]Man(a1-3)[GlcNAc(b1-4)][Neu5Ac(a2-6)Gal(b1-4)GlcNAc(b1-2)[Neu5Ac(a2-6)Gal(b1-4)GlcNAc(b1-6)]Man(a1-6)]Man(b1-4)GlcNAc(b1-4)GlcNAc
Outline: as §1

[40] = biological target: Neu5Ac(a2-6)Gal(b1-4)GlcNAc(b1-2)[Neu5Ac(a2-6)Gal(b1-4)GlcNAc(b1-4)]Man(a1-3)[GlcNAc(b1-4)][Neu5Ac(a2-6)Gal(b1-4)GlcNAc(b1-4)Man(a1-6)]Man(b1-4)GlcNAc(b1-4)GlcNAc
Outline: as §1

[41] = biological target: Neu5Ac(a2-6)Gal(b1-4)GlcNAc(b1-2)[Neu5Ac(a2-6)Gal(b1-4)GlcNAc(b1-6)]Man(a1-6)[Neu5Ac(a2-6)Gal(b1-4)GlcNAc(b1-2)Man(a1-3)][GlcNAc(b1-4)]Man(b1-4)GlcNAc(b1-4)GlcNAc
Outline: as §1

[42] = biological target: Neu5Ac(a2-6)Gal(b1-4)GlcNAc(b1-3)Gal(b1-3)GlcNAc
Outline: as §1

[43] = biological target: Neu5Ac(a2-6)Gal(b1-4)GlcNAc(b1-3)Gal(b1-4)GlcNAc
Outline: as §1

[44] = biological target: Neu5Ac(a2-6)Gal(b1-4)GlcNAc(b1-3)Gal(b1-4)GlcNAc(b1-2)Man(a1-3)[Neu5Ac(a2-6)Gal(b1-4)GlcNAc(b1-3)Gal(b1-4)GlcNAc(b1-2)Man(a1-6)]GalNAc
Outline: as §1

[45] = biological target: Neu5Ac(a2-6)Gal(b1-4)GlcNAc(b1-3)Gal(b1-4)GlcNAc(b1-3)Gal(b1-4)GlcNAc
Outline: as §1

B1: FimA-N2 (Actinomyces oris) (protein)
chain: MHHHHHHSSGVDLGTENLYFQSNAWIYDVNVYPKNEAIDVDKTIQAQKLNGYGVGSLIKFPVESTAPTLDAKSFYKYFQLKDTLDERLSEVTATDVSLEGTPLQPTDYKVETKQQTVTVTFTAEGLKKIKAAPGKKVSAVFQGKVTKAGNGAITNRAQVISDTLYAEQPPTPETPPTDPENPPTSDEVISRWGDLSIKKVDTHQQGQTKA
glycan array binding signal (z-score) [1]: 1.38
glycan array binding signal (z-score) [2]: 0.27
glycan array binding signal (z-score) [3]: -1.4
glycan array binding signal (z-score) [4]: 1.27
glycan array binding signal (z-score) [5]: -1.19
glycan array binding signal (z-score) [6]: -1.21
glycan array binding signal (z-score) [7]: -0.499
glycan array binding signal (z-score) [8]: 0.553
glycan array binding signal (z-score) [9]: -0.098
glycan array binding signal (z-score) [10]: 0.659
glycan array binding signal (z-score) [11]: 1.73
glycan array binding signal (z-score) [12]: -0.322
glycan array binding signal (z-score) [13]: 0.808
glycan array binding signal (z-score) [14]: -0.089
glycan array binding signal (z-score) [15]: -0.662
glycan array binding signal (z-score) [16]: -0.244
glycan array binding signal (z-score) [17]: 0.59
glycan array binding signal (z-score) [18]: -0.484
glycan array binding signal (z-score) [19]: -1.35
glycan array binding signal (z-score) [20]: 0.146
glycan array binding signal (z-score) [21]: -1.07
glycan array binding signal (z-score) [22]: -0.241
glycan array binding signal (z-score) [23]: -0.177
glycan array binding signal (z-score) [24]: 0.148
glycan array binding signal (z-score) [25]: -0.75
glycan array binding signal (z-score) [26]: -0.501
glycan array binding signal (z-score) [27]: -1.15
glycan array binding signal (z-score) [28]: -0.171
glycan array binding signal (z-score) [29]: -0.634
glycan array binding signal (z-score) [30]: -1.7
glycan array binding signal (z-score) [31]: 0.005
glycan array binding signal (z-score) [32]: 0.884
glycan array binding signal (z-score) [33]: 0.297
glycan array binding signal (z-score) [34]: 0.538
glycan array binding signal (z-score) [35]: -0.759
glycan array binding signal (z-score) [36]: -1.01
glycan array binding signal (z-score) [37]: 0.589
glycan array binding signal (z-score) [38]: -0.882
glycan array binding signal (z-score) [39]: -0.605
glycan array binding signal (z-score) [40]: -0.955
glycan array binding signal (z-score) [41]: -1.28
glycan array binding signal (z-score) [42]: 1.22
glycan array binding signal (z-score) [43]: -0.606
glycan array binding signal (z-score) [44]: 1.3
glycan array binding signal (z-score) [45]: 0.232
